Laboratory results published in doi:10.1101/2021.07.27.453975.
These are yes or no findings as the source states them, for the method shown. In cells and extracts the contact can be indirect. Some results given as binding are weak or reduced against the parent protein; the word gives no strength.

The chains behind the UniProt entries cited, without tags or fusion partners.
UniProt Q9Y5Q3: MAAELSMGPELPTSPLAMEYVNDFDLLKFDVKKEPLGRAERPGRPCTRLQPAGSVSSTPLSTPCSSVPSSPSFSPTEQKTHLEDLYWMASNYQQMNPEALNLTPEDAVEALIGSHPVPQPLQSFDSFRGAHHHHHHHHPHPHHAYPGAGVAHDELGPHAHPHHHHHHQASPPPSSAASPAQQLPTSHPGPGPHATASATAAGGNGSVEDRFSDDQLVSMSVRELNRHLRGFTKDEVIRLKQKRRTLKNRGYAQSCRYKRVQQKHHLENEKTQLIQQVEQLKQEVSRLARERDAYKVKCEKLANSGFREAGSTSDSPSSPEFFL
UniProt P04150: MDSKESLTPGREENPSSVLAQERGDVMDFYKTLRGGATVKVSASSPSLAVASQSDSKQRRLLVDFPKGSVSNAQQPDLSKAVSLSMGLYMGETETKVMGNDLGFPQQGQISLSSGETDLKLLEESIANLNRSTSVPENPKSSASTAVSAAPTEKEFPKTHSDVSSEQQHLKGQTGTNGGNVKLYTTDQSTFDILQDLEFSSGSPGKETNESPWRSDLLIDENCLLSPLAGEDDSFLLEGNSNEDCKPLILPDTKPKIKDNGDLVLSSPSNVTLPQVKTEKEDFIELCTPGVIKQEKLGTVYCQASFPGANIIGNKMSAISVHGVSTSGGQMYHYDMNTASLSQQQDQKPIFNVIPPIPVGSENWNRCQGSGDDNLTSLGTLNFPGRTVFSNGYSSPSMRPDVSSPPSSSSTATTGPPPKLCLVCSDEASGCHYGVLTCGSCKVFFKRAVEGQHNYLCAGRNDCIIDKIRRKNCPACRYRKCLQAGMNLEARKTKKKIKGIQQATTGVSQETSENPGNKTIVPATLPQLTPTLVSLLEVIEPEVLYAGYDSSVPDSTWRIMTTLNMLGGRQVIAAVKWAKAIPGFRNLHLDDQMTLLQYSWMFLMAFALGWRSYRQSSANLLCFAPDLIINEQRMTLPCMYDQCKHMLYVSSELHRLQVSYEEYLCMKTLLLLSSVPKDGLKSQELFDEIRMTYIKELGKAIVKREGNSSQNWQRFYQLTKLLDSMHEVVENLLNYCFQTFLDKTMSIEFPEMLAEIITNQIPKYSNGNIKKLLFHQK

Molecular target: Ten-eleven translocation methylcytosine dioxygenase 2 (TET2) (human (endogenous in monocyte-derived tolDCs)) (UniProt Q6N021)
Test: co-IP

Row | binding | Substance
1 | binds | MAFB (from UniProt Q9Y5Q3 1-323)
2 | binds | Glucocorticoid Receptor (GR) (from UniProt P04150 1-777)
